{"source": "paper PMC7326017", "molecules": {"B1": {"name": "Flag-tagged full-length IKKε (protein, UniProt Q14164 1-716)", "chain": "MQSTANYLWHTDDLLGQGATASVYKARNKKSGELVAVKVFNTTSYLRPREVQVREFEVLRKLNHQNIVKLFAVEETGGSRQKVLVMEYCSSGSLLSVLESPENAFGLPEDEFLVVLRCVVAGMNHLRENGIVHRDIKPGNIMRLVGEEGQSIYKLTDFGAARELDDDEKFVSVYGTEEYLHPDMYERAVLRKPQQKAFGVTVDLWSIGVTLYHAATGSLPFIPFGGPRRNKEIMYRITTEKPAGAIAGAQRRENGPLEWSYTLPITCQLSLGLQSQLVPILANILEVEQAKCWGFDQFFAETSDILQRVVVHVFSLSQAVLHHIYIHAHNTIAIFQEAVHKQTSVAPRHQEYLFEGHLCVLEPSVSAQHIAHTTASSPLTLFSTAIPKGLAFRDPALDVPKFVPKVDLQADYNTAKGVLGAGYQALRLARALLDGQELMFRGLHWVMEVLQATCRRTLEVARTSLLYLSSSLGTERFSSVAGTPEIQELKAAAELRSRLRTLAEVLSRCSQNITETQESLSSLNRELVKSRDQVHEDRSIQQIQCCLDKMNFIYKQFKKSRMRPGLGYNEEQIHKLDKVNFSHLAKRLLQVFQEECVQKYQASLVTHGKRMRVVHETRNHLRLVGCSVAACNTEAQGVQESLSKLLEELSHQLLQDRAKGAQASPPPIAPYPSPTRKDLLLHMQELCEGMKLLASDLLDNNRIIERLNRVPAPPDV"}, "B2": {"name": "Flag-tagged kinase domain (KD) of IKKε (pCAGGS-Flag-KD) (domain or fragment, UniProt Q14164 1-304)", "chain": "MQSTANYLWHTDDLLGQGATASVYKARNKKSGELVAVKVFNTTSYLRPREVQVREFEVLRKLNHQNIVKLFAVEETGGSRQKVLVMEYCSSGSLLSVLESPENAFGLPEDEFLVVLRCVVAGMNHLRENGIVHRDIKPGNIMRLVGEEGQSIYKLTDFGAARELDDDEKFVSVYGTEEYLHPDMYERAVLRKPQQKAFGVTVDLWSIGVTLYHAATGSLPFIPFGGPRRNKEIMYRITTEKPAGAIAGAQRRENGPLEWSYTLPITCQLSLGLQSQLVPILANILEVEQAKCWGFDQFFAETSD"}, "B3": {"name": "Flag-tagged scaffold dimerization domain (SDD) of IKKε (pCAGGS-Flag-SDD) (domain or fragment, UniProt Q14164 383-648)", "chain": "STAIPKGLAFRDPALDVPKFVPKVDLQADYNTAKGVLGAGYQALRLARALLDGQELMFRGLHWVMEVLQATCRRTLEVARTSLLYLSSSLGTERFSSVAGTPEIQELKAAAELRSRLRTLAEVLSRCSQNITETQESLSSLNRELVKSRDQVHEDRSIQQIQCCLDKMNFIYKQFKKSRMRPGLGYNEEQIHKLDKVNFSHLAKRLLQVFQEECVQKYQASLVTHGKRMRVVHETRNHLRLVGCSVAACNTEAQGVQESLSKLLEE"}}, "key": {"[1]": {"target": "T1, Flag-tagged kinase domain (KD) of IKKε (pCAGGS-Flag-KD) (UniProt Q14164)", "T1 sequence": "B2 chain", "assay": "co-IP; reverse co-IP: HEK-293T co-transfected with pCAGGS-HA-NS7a and Flag-tagged IKKε, SDD or KD for 24 h; IP with anti-Flag, blot with anti-HA (Figures 4B, 6C, 6D)"}, "[2]": {"target": "T2, Flag-tagged scaffold dimerization domain (SDD) of IKKε (pCAGGS-Flag-SDD) (UniProt Q14164)", "T2 sequence": "B3 chain", "assay": "co-IP; reverse co-IP: HEK-293T co-transfected with pCAGGS-HA-NS7a and Flag-tagged IKKε, SDD or KD for 24 h; IP with anti-Flag, blot with anti-HA (Figures 4B, 6C, 6D)"}, "[3]": {"target": "T3, Flag-tagged full-length IKKε (UniProt Q14164)", "T3 sequence": "B1 chain", "assay": "co-IP; reverse co-IP: HEK-293T co-transfected with pCAGGS-HA-NS7a and Flag-tagged IKKε, SDD or KD for 24 h; IP with anti-Flag, blot with anti-HA (Figures 4B, 6C, 6D)"}, "[4]": {"target": "T4, HA-tagged scaffold dimerization domain (SDD) of IKKε (pCAGGS-HA-SDD) (UniProt Q14164)", "T4 sequence": "B3 chain", "assay": "co-IP; competitive co-IP: HEK-293T co-transfected with HA-tagged IKKε, SDD or KD and Flag-tagged TRAF3 or IRF3, with pCAGGS-Myc-NS7a or empty vector, 24 h; IP with anti-HA, blot with anti-HA, anti-Flag, anti-Myc (Figures 5A, 5B, 6E, 6F)"}, "[5]": {"target": "T5, HA-tagged kinase domain (KD) of IKKε (pCAGGS-HA-KD) (UniProt Q14164)", "T5 sequence": "B2 chain", "assay": "co-IP; competitive co-IP: HEK-293T co-transfected with HA-tagged IKKε, SDD or KD and Flag-tagged TRAF3 or IRF3, with pCAGGS-Myc-NS7a or empty vector, 24 h; IP with anti-HA, blot with anti-HA, anti-Flag, anti-Myc (Figures 5A, 5B, 6E, 6F)"}, "[6]": {"target": "T6, HA-tagged full-length IKKε (pCAGGS-HA-IKKε) (UniProt Q14164)", "T6 sequence": "B1 chain", "assay": "co-IP; competitive co-IP: HEK-293T co-transfected with HA-tagged IKKε, SDD or KD and Flag-tagged TRAF3 or IRF3, with pCAGGS-Myc-NS7a or empty vector, 24 h; IP with anti-HA, blot with anti-HA, anti-Flag, anti-Myc (Figures 5A, 5B, 6E, 6F)"}, "[7]": {"target": "PDCoV NS7a, HA-tagged (pCAGGS-HA-NS7a) (porcine deltacoronavirus (PDCoV) strain CHN-HN-2014)", "assay": "co-IP; HEK-293T co-transfected with pCAGGS-HA-NS7a and Flag-tagged constructs for 24 h; lysis buffer 50 mM Tris-HCl, 150 mM NaCl, 1% NP-40, 10% glycerin, 0.1% SDS, 2 mM Na2EDTA, pH 7.4; IP with anti-HA, blot with anti-Flag (Figures 4A, 6B)"}}, "note": "These are yes or no findings as the source states them, for the method shown. In cells and extracts the contact can be indirect. A result given as binding can be weak or reduced; the word gives no strength. Tags and fused reporters may be left off the sequences shown.", "data": [{"molecule": "PDCoV NS7a, HA-tagged (pCAGGS-HA-NS7a)", "values": [{"measurement": "binding", "setting": "[1]", "result": "binds"}, {"measurement": "binding", "setting": "[2]", "result": "binds"}, {"measurement": "binding", "setting": "[3]", "result": "binds"}]}, {"molecule": "PDCoV NS7a, Myc-tagged (pCAGGS-Myc-NS7a)", "values": [{"measurement": "binding", "setting": "[4]", "result": "binds"}, {"measurement": "binding", "setting": "[5]", "result": "binds"}, {"measurement": "binding", "setting": "[6]", "result": "binds"}]}, {"molecule": "B1", "values": [{"measurement": "binding", "setting": "[7]", "result": "binds"}]}, {"molecule": "B2", "values": [{"measurement": "binding", "setting": "[7]", "result": "binds"}]}, {"molecule": "B3", "values": [{"measurement": "binding", "setting": "[7]", "result": "binds"}]}]}
